According to patent US20170226176A1 (WISTAR INSTITUTE OF ANATOMY AND BIOLOGY, published 2017):

Molecular target: T1, human FSH receptor (FSHR) spontaneously expressed on human OVCAR-3 ovarian cancer cells (human, UniProt P23945 18-695)
T1 sequence (looked up): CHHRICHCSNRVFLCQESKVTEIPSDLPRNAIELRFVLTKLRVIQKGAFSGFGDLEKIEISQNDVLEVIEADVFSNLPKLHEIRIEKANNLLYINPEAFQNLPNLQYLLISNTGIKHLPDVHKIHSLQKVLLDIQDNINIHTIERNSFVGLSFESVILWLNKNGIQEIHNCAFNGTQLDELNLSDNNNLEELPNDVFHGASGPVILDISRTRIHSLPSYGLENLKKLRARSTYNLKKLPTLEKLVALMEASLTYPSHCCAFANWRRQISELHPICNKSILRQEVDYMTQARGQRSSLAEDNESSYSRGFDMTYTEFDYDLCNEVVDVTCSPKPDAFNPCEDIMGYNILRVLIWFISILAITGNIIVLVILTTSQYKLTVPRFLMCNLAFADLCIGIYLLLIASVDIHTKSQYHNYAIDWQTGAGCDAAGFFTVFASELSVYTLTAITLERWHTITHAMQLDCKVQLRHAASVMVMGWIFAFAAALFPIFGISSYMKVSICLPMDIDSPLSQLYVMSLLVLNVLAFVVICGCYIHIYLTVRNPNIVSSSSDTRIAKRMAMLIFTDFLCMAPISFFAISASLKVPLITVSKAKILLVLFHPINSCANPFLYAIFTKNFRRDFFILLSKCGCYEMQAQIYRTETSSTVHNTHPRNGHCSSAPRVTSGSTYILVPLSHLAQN
Test: cell-based or functional assay

B1: human FSH chimeric endocrine receptor (hFSHCER), construct of FIG. 5 / Table 1, expressed on transduced human T cells or TALL-103/2 cells (other)
chain: NSCELTNITIAIEKEECRFCISINTTWCAGYCYTRDLVYKDPARPKIQKTCTFKELVYETVRVPGCAHHADSLYTYPVATQCHCGKCDSDSTDCTVRGLGPSYCSFGEMKEGGGSGGGSGGGSGGGAPDVQETGFHHVAQAALKLLSSSNPPTKASQSARITDCPECTLQENPFFSQPGAPILQCMGCCFSRAYPTPLRSKKTMLVQKNVTSESTCCVAKSYNRVTVMGGFKVENHTACHCSTCYYHKSTTTPAPRPPTPAPTIASQPLSLRPEACRPAAGGAVHTRGLDFACDIYIWAPLAGTCGVLLLSLVITLYCKRGRKKLLYIFKQPFMRPVQTTQEEDGCSCRFPEEEEGGCELRVKFSRSADAPAYQQGQNQLYNELNLGRREEYDVLDKRRGRDPEMGGKPRRKNPQEGLYNELQKDKMAEAYSEIGMKGERRRGKGHDGLYQGLSTATKDTYDALHMQALPPR
elimination of OVCAR3 tumor cells by FSH CER-transduced TALL-103/2 cells (luciferase cytotoxicity assay, 4 h) at effector:target ratios as low as 1:4: ~60%
